Reference: PubChem BioAssay AID1259308 (NCATS, 2017)
In all, the deposit lists about 59,000 reagents; shown is a part drawn at random. In the full data, about 1,510 (2.6%) are marked active. 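Calls use total luciferase alone and ignore viability, so some active siRNAs may act by altering cell number.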 The numbers tell different reagents against one gene apart. Further read-outs or replicates are left out here.

Purpose: 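Genes whose loss raises luciferase production in HEK293 cells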 (primary screen)
Cell system: human HEK293 embryonic kidney cells stably expressing firefly luciferase (HEK-CMV-Luc2-Hygro)
Reagents: single siRNA against human genes, 0.8 pmol siRNA per well
Time to read-out: 72 h
Read-out: 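Reporter luminescence and viable-cell signal on separate replicate plates, given as percent of non-targeting control and median/MAD z-scores, plus per-cell luciferase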
Scale: total luciferase, z-score: higher = more reporter protein produced
Call rule: 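An siRNA counts as active if its total luciferase robust z-score exceeds 3; genes with two or more such siRNAs out of three were retested with fresh siRNAs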
Meaning of the calls: active = raised luciferase; inactive = no rise

CAPN7 #1 — total luciferase, z-score: -0.15; activity call: inactive
CAPN7 #2 — total luciferase, z-score: 0.988; activity call: inactive
CAPN7 #3 — total luciferase, z-score: 2.17; activity call: inactive
SPANXN5 #1 — total luciferase, z-score: -0.464; activity call: inactive
SPANXN5 #2 — total luciferase, z-score: -0.11; activity call: inactive
SPANXN5 #3 — total luciferase, z-score: 0.239; activity call: inactive
ADA #1 — total luciferase, z-score: 0.0899; activity call: inactive
ADA #2 — total luciferase, z-score: 0.237; activity call: inactive
ADA #3 — total luciferase, z-score: 1.69; activity call: inactive
TGFB2 #1 — total luciferase, z-score: -1.4; activity call: inactive
TGFB2 #2 — total luciferase, z-score: 0.825; activity call: inactive
TGFB2 #3 — total luciferase, z-score: -1.1; activity call: inactive
LRRIQ4 #1 — total luciferase, z-score: -0.541; activity call: inactive
LRRIQ4 #2 — total luciferase, z-score: -0.623; activity call: inactive
LRRIQ4 #3 — total luciferase, z-score: -0.414; activity call: inactive
SUMO2 #1 — total luciferase, z-score: 0.19; activity call: inactive
SUMO2 #2 — total luciferase, z-score: 2.7; activity call: inactive
SUMO2 #3 — total luciferase, z-score: 0.314; activity call: inactive
LYSMD3 #1 — total luciferase, z-score: 1.02; activity call: inactive
LYSMD3 #2 — total luciferase, z-score: -0.16; activity call: inactive
LYSMD3 #3 — total luciferase, z-score: 1.71; activity call: inactive
CYBC1 #1 — total luciferase, z-score: 0.444; activity call: inactive
CYBC1 #2 — total luciferase, z-score: 0.211; activity call: inactive
CYBC1 #3 — total luciferase, z-score: -1.06; activity call: inactive
USP18 #1 — total luciferase, z-score: 1.03; activity call: inactive
USP18 #2 — total luciferase, z-score: 0.57; activity call: inactive
USP18 #3 — total luciferase, z-score: 0.461; activity call: inactive
GGCT #1 — total luciferase, z-score: 0.425; activity call: inactive
GGCT #2 — total luciferase, z-score: 0.419; activity call: inactive
GGCT #3 — total luciferase, z-score: -0.566; activity call: inactive
STEAP1B #1 — total luciferase, z-score: 3.44; activity call: active
STEAP1B #2 — total luciferase, z-score: 0.19; activity call: inactive
STEAP1B #3 — total luciferase, z-score: 0.823; activity call: inactive
